Experimental data as given in patent US11693000B2, “Methods and systems for modulating physiological states between biological entities” (OBERON SCIENCES ILAN LTD., priority 2015, dated 2023).
For at least one compound, name, drawing or mass did not settle the structure.

What was measured:
Format in all cases: in vivo
[1] = system: Con A induced liver damage; test: Con A liver damage model, mice treated with Dexamethasone (Table 2, group B); settings: Con A mice treated with Dexamethasone (group B) compared to other groups of mice; FIG. 8
[2] = system: Con A induced liver damage; test: Con A mice exposed to samples of splenocytes harvested from Con A mice treated with Dexamethasone; settings: Con A mice exposed to splenocytes from Con A donors treated vs untreated with Dexamethasone; p<0.05; indirect exposure; FIG. 6
[3] = system: Con A induced liver damage; test: Con A mice kept 16 hours in the same cage with mice treated with Dexamethasone prior to Con A injection; settings: untreated Con A mice kept together with Dexamethasone-treated mice vs non-exposed Con A mice; 16 hours after ConA injection; p<0.01; indirect exposure

**Q.** What does the source list for `C[C@@H]1C[C@H]2[C@@H]3CCC4=CC(=O)C=C[C@]4(C)[C@@]3(F)[C@@H](O)C[C@]2(C)[C@@]1(O)C(=O)CO` [Dexamethasone]?
**A.** serum ALT levels [1]: significantly improved; ALT serum levels [2]: palliative anti-inflammatory effects; AST serum levels [2]: palliative anti-inflammatory effects; serum ALT levels [3]: significantly lower; serum AST levels [3]: significantly lower; serum IFNγ levels [3]: significantly lower
